The campaign covered roughly 320,000 compounds. About 200 (0.062%) were called active. About 6% were inconclusive and are not listed. Calls come from the whole dose curve; as a rule, active = well fitted activation curve with a large enough effect; inconclusive = small, poorly fitted or top-dose-only effect; inactive = no such curve, though single readings can be large or run the other way. The list shows a part of the results, in another mix than the full data. The source gives no active or inactive call for entries shown without one.

The results in this text go back to PubChem BioAssay AID504706 (National Center for Advancing Translational Sciences (NCATS), 2011).
Potency is the fitted concentration of half-maximal effect.

A short description of this test: qHTS assay for re-activators of p53 using a Luc reporter. For activity change, positive = activation: % of control where 0% means no effect. Note: nearly all actives have a fitted effect of over 45% in size. Particulars: H1299 p53-A138V BP100-luciferase reporter, luminescence, 24 h; activity change, positive = activation: at 92.2 µM (top of the series). The method, boiled down: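 H1299 (p53-null), stable ts p53-A138V + BP100-Luc; 1000 cells/well, Opti-MEM/10% FBS; cpd 4 pt, 1:5; 24 h, 37 deg C, 5% CO2; detection reagent 10 min RT; luminescence.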
(In general: In qHTS, concentration-response curves come from the screen itself.)
`CCOc1ccc(NC(=O)c2ccccc2O)cc1`: the activity change, positive = activation is 64.5%. Regarding `COc1ccc2cc(S(=O)(=O)N3CCCCC3)ccc2c1S(=O)(=O)N1CCCCC1`, the “activity change, positive = activation” value was inactive: -6.92%. Regarding `OC(COc1ccc2cc(Br)ccc2c1)CN1CCCC1` (configuration not stated), the activity change, positive = activation is -46.1%. Take `Cc1ccc(NC(=O)/C=C/c2ccc3c(c2)OCO3)nc1`: the activity change, positive = activation is 97.5%. As to `Cc1ccc(NCc2nc3ccccc3n2C)cc1`, the activity change, positive = activation was 53.6%. Same read-out and setting: to `CCOc1ccc(N2C(=O)CC(N)C2=O)cc1` (configuration not stated) belongs inactive: -35.1%.

As to `CCOc1ccc(NC(=O)c2ccco2)c([N+](=O)[O-])c1`, the Potency was active: 4.47 µM. In the case of `CN(CC(=O)Nc1ccccc1Br)C(=O)c1ccccc1-c1nc2ccccc2s1`, the “activity change, positive = activation” value was inactive: -39.2%. For `CCCc1ccc(-c2cc(C(=O)Nc3ccc([N+](=O)[O-])cn3)c3ccccc3n2)cc1`, the activity change, positive = activation was determined as 51.6%. Consider `Clc1ccccc1Nc1nnc(-c2ccncc2)s1`, for which the activity change, positive = activation was 48.9%. In the case of `Oc1[nH]c2ccccc2c1C=Nc1ccc2c(c1)OCCO2`, the activity change, positive = activation was 82.1%. As for `CCCOc1ccc(/C=N/Nc2ccccc2[N+](=O)[O-])c(O)c1`, the activity change, positive = activation came to 29%.

`O=S(=O)(c1ccc2nc(-c3ccco3)c(-c3ccco3)nc2c1)N1CCOCC1`: the “activity change, positive = activation” value is inactive: -36.8%. `CCn1c(C(C)NC(=O)c2ccc(OC)c(OC)c2)nc2ccccc21` (configuration not stated): the activity change, positive = activation amounted to 53.4%. Turning to `O=C(c1cnn(-c2ccccc2)c1)c1ccccc1O`, the activity change, positive = activation worked out at 161%.

In the case of `COCCn1c(C)cc(C(=O)COC(=O)c2cccnc2SC)c1C`, the activity change, positive = activation turned out to be 29.9%. The same measure, in the same setting: to `COC(=O)CSc1nc2cc(OC)ccc2cc1C#N` belongs 65.9%. For `O=[N+]([O-])c1ccc(NNC(=S)Nc2ccc(F)cc2)cc1`, the Potency is active: 28.2 µM. Regarding `COc1ccccc1C(=O)NC(=S)NNC(=O)c1sc2ccccc2c1Cl`, the activity change, positive = activation was found to be 39.6%. In the case of `Cc1cc(C(F)(F)F)c(C#N)c(SCC(=O)Nc2nc3ccccc3s2)n1`, the activity change, positive = activation was -22%.

For the molecule `C/C(=N\NC(=O)c1cc2c(s1)CCC(C)C2)c1ccc[nH]1` (configuration not stated), the activity change, positive = activation turned out to be 55.7%. On to `CCn1nnnc1SCC(=O)N1c2ccccc2Sc2ccccc21`, for which the activity change, positive = activation was found to be 44%.

For the molecule `Cc1[nH]n(-c2ncc(-c3ccccc3)s2)c(=O)c1C(c1ccc(Br)cc1)C(C#N)C#N` (configuration not stated), the activity change, positive = activation amounted to 30.1%. As to `NS(=O)(=O)c1ccc2nc(NC(=O)Nc3ccccc3F)sc2c1`, the activity change, positive = activation came to 68.1%.

`CSc1ccccc1-c1nc(-c2ccncc2)no1`: the activity change, positive = activation is 32.8%.

Turning to `COc1ccccc1-c1cc(C(=O)N2CCCCC2)no1`, the activity change, positive = activation turned out to be 44.3%.

As for `Cc1ccccc1NC(=O)N1CCCC(c2nc(-c3ccc(C(C)C)cc3)no2)C1` (configuration not stated), the Potency is active: 44.7 µM.

Take `CCOC(=O)C1=C(C)NC(SCC(=O)Nc2nc(C)cs2)=C(C#N)C1c1cccs1` (configuration not stated): the “activity change, positive = activation” value is inactive: -56.4%. Turning to `Cc1ccc(-c2nnc(Oc3cccc(C)c3)c3ccccc23)cc1`, the activity change, positive = activation was determined as 83.5%.

`Clc1ccc(CSc2snnc2-c2ccccc2)c(Cl)c1`: the Potency was active: 39.8 µM. For the molecule `O=c1c2ccccc2nc(SCc2cccc(F)c2)n1C1CCCC1`, the “activity change, positive = activation” value is inactive: -33.8%. On the same count and under the same terms, to `COc1ccccc1Nc1nc(C)cs1` belongs inactive: 17.9%; to `Cc1cc(/C=C2/C(=O)NN(c3ccccc3)C2=O)c(C)n1-c1cccc(O)c1`, 162%. With `CC(C)CN1CCC(Oc2cccc(C(=O)NCCc3ccccc3)c2)CC1`, the Potency was active: 39.8 µM. Regarding `Cc1nc(-c2ccc(NC(=O)c3cccs3)cc2)cs1`, the activity change, positive = activation came to 60.5%. With `Cc1cccc(N2CCN(c3cc(C)nc4nnnn34)CC2C)c1` (configuration not stated), the “activity change, positive = activation” value was inactive: 7.44%. `CCc1nn2cc(-c3ccccc3)nc2s1`: the “activity change, positive = activation” value was inactive: -21.4%.

Take `COc1ccc(C(=O)Nc2cc(C(=O)c3ccccc3)c(C)oc2=O)cc1`: the “activity change, positive = activation” value was inactive: -58.3%. With `O=C1CCCN1CCC(=O)N1CCCC(CO)(Cc2ccccc2)C1` (configuration not stated), the Potency is active: 28.2 µM. `O=C(c1ccco1)n1c(=S)nc2ccccn21`: the activity change, positive = activation amounted to 46.2%. With `CCOC(=O)/C=C/C(=O)OCC(=O)N1CCN(C(=O)c2ccco2)CC1`, the “activity change, positive = activation” value was inactive: -34.6%. With `Cc1csc(NC(=O)c2cc3c(s2)CCC3)n1`, the activity change, positive = activation is 38%. As to `C=CC[C@@H](CC(=O)N(CCO)Cc1ccccc1)C(=O)N[C@@H](COC(=O)[C@H](CC=C)CC(=O)OC(C)(C)C)Cc1c[nH]c2ccccc12`, the “activity change, positive = activation” value is inactive: 2.74%. Turning to `C(=C\c1nc(-c2ccccc2)no1)/c1ccccc1`, the activity change, positive = activation was determined as 154%.

Take `O=c1cc(-c2ccc(O)c(O)c2)oc2ccc3ccccc3c12`: the activity change, positive = activation came out at 51.7%.

Turning to `c1ccc(-c2cn3c4c(sc3n2)CCCC4)cc1`, the activity change, positive = activation is -17.3%. The same measure, in the same setting: in the case of `COC(=O)c1ccc(COc2cccc3c2CCN(Cc2ccccc2)C3=O)o1` it was inactive: -32.1%; in that of `O=C(Nc1n[nH]c(C2CCCCC2)n1)C1CCCCC1`, 24.8%; in that of `CCN(CC(=O)Nc1c(C(=O)OC)[nH]c2ccc(Cl)cc12)c1ccc2c(c1)OCO2`, inactive: 3.64%. Consider `Cc1ccc(/C=C/C(O)=C2/C(=O)N(C)C3(C)CC2c2ccccc2O3)cc1` (configuration not stated), for which the “activity change, positive = activation” value is inactive: -31%. As for `CCOc1ccc2cc(C#N)c(SCC(=O)OC)nc2c1`, the activity change, positive = activation worked out at 42.1%. On the same count and under the same terms, to `Cc1cccc2cc(/C=N/Nc3ccc(C(=O)O)cc3)c(Cl)nc12` belongs 38.4%. As to `O=C(/C=C/Nc1ccccc1F)c1ccc(Br)cc1`, the activity change, positive = activation turned out to be 31.7%. As for `N#C/C(=C/c1ccc(O)c(O)c1)C(=O)NCc1ccc(Cl)cc1`, the activity change, positive = activation was 42.1%. For `C/C(=N\NC(=O)C1(C)CC1(Br)Br)c1cccc(NC(=O)c2ccc(C)o2)c1` (configuration not stated), the “activity change, positive = activation” value is inactive: -48.7%. As for `Cc1onc(-c2c(F)cccc2Cl)c1C(=O)NCc1ccc2c(c1)OCO2`, the “activity change, positive = activation” value is inactive: -32.1%. Turning to `Clc1ccc(-c2cn3c(n2)-c2ccccc2C3)cc1Cl`, the activity change, positive = activation turned out to be 110%.
